Measurements: patent US20070172957A1, “Methods of identifying anti-inflammatory macrolides” (TAISHO PHARMACEUTICAL CO., LTD., priority 2004, published 2007)

System: A549 cells
Experiment: A549 microarray comparing macrolides with arachidonic acid pathway inhibitors, with IL-1β stimulation (Appendix C, Tables 6-9), and correlation analysis
Format: cell-based
Conditions: for Correlation coefficient of transcriptional response with FMA response / Correlation coefficient of transcriptional response with Josa response / Correlation coefficient of transcriptional response with Roxi response / Correlation coefficient of transcriptional response with Dexamethasone response / Correlation coefficient of transcriptional response with Indomethacin response / Correlation coefficient of transcriptional response with Triacsin C response / Correlation coefficient of transcriptional response with Clari response: A549 + IL-1β; for Correlation coefficient of transcriptional response with FMA response / Correlation coefficient of transcriptional response with Josa response / Correlation coefficient of transcriptional response with Roxi response / Correlation coefficient of transcriptional response with Dexamethasone response / Correlation coefficient of transcriptional response with Indomethacin response / Correlation coefficient of transcriptional response with Triacsin C response / Correlation coefficient of transcriptional response with IL-1β response / Correlation coefficient of transcriptional response with Clari response: all spots; for Correlation coefficient of transcriptional response with Dexamethasone response / Correlation coefficient of transcriptional response with Indomethacin response / Correlation coefficient of transcriptional response with Triacsin C response / Correlation coefficient of transcriptional response with IL-1β response: cosine vector angle; for Correlation coefficient of transcriptional response with IL-1β response: A549
Text: One inhibitor, triacsin C, acts on AA biosynthesis by inhibiting arachidonyl CoA synthetases, blocking the incorporation of free AA into phospholipids. Triacsin C is reasonably specific for AA compared to other fatty acids. However, triacsin C structurally resembles AA so it also may interfere with other steps in the AA pathway. Indomethacin is an inhibitor of COX1 and COX2 enzyme activities and therefore specifically blocks metabolism of AA into prostaglandins. […] It inhibits transcription of PLA2, and transcriptionally and post-transcriptionally regulates COX1 and COX2 activities. Dexamethasone has additional effects unrelated to AA through binding with the glucocorticoid receptor to glucocortcoid response elements.
A549 cells were pre-incubated overnight (17 hours) with macrolides (10 μM FMA-9045, 50 μM clarithromycin, 50 μM roxithromycin, 50 μM josamycin) and 15 μM triacsin C, and pre-incubated 2 hours with 100 nM indomethacin and 100 nM dexamethasone. All cells then were stimulated for 4 hours with IL-1β, because the activation of PLA2 and downstream signaling events generally requires an inflammatory stimulus. The various treatment conditions are shown below in Table 4. Following macrolide and inhibitor pre-treatment and IL-1 stimulation, the cells were lysed, total RNA was collected, and the poly-A+ mRNA fraction was purified. The resulting microarray data (Appendix C) were analyzed using the methods described in the Examples above.
The tables in Appendix C represent the effects of the arachidonic acid pathway inhibitors (“AA pathway inhibitors”) and the effects of the macrolides (“IL1+macrolide effects”). […] In both tables in Appendix C, the genes that meet this criterion (≧1.3 min fold change) are indicated in bold.
Quantitative analysis was done to determine how well the responses to the different AA pathway inhibitors correlated. The correlation values were assigned a p-value to provide statistical confidence to the correlation value. Correlation between experiments, across all spots showing good detection, was assessed by cosine vector angle to generate the data shown in Tables 7-9. A correlation coefficient close to one indicates strong correlation, whereas a value near zero indicates no correlation. P-values for each correlation coefficient were estimated based on a Fisher permutation test. In this test, each spot's expression ratios were randomly re-ordered across experiments and the degree of correlation between experiments was then reassessed. This was done repeatedly.

[1] = subset of genes differentially expressed in response to clarithromycin

Compound | Correlation coefficient of transcriptional response with FMA response | Correlation coefficient of transcriptional response with Josa response | Correlation coefficient of transcriptional response with Roxi response | Correlation coefficient of transcriptional response with Dexamethasone response | Correlation coefficient of transcriptional response with Indomethacin response | Correlation coefficient of transcriptional response with Triacsin C response | Correlation coefficient of transcriptional response with IL-1β response | Correlation coefficient with dexamethasone response [1] | Correlation coefficient with indomethacin response [1] | Correlation coefficient with triacsin C response [1] | Correlation coefficient with triacsin C response (subset of genes differentially expressed in response to triacsin C) | Correlation coefficient of transcriptional response with Clari response
CC[C@H]1OC(=O)[C@H](C)[C@@H](O[C@H]2C[C@@](C)(OC)[C@@H](O)[C@H](C)O2)[C@H](C)[C@@H](O[C@@H]2O[C@H](C)C[C@H](N(C)C)[C@H]2O)[C@](C)(OC)C[C@@H](C)C(=O)[C@H](C)[C@@H](O)[C@]1(C)O [clarithromycin] | 0.430 | 0.601 | 0.683 | 0.162 | 0.553 | 0.607 | −0.059 | 0.430 | 0.848 | 0.916 | – | –
COc1ccc2c(c1)c(CC(=O)O)c(C)n2C(=O)c1ccc(Cl)cc1 [indomethacin] | – | – | – | 0.266 | – | 0.485 | −0.195 | – | – | – | 0.621 | –
CO[C@@H]1[C@@H](O[C@@H]2O[C@H](C)[C@@H](O[C@H]3C[C@@](C)(O)[C@@H](OC(=O)CC(C)C)[C@H](C)O3)[C@H](N(C)C)[C@H]2O)[C@@H](CC=O)C[C@@H](C)[C@@H](O)/C=C/C=C/C[C@@H](C)OC(=O)C[C@H]1OC(C)=O [josamycin] | 0.660 | – | 0.721 | – | – | – | 0.060 | – | – | – | – | 0.601
CC[C@H]1OC(=O)[C@H](C)[C@@H](O[C@H]2C[C@@](C)(OC)[C@@H](O)[C@H](C)O2)[C@H](C)[C@@H](O[C@@H]2O[C@H](C)C[C@H](N(C)C)[C@H]2O)[C@](C)(O)C[C@@H](C)/C(=N\OCOCCOC)[C@H](C)[C@@H](O)[C@]1(C)O [roxithromycin] | 0.658 | 0.721 | – | 0.188 | 0.639 | 0.681 | −0.049 | – | – | – | – | 0.683
CCC/C=C/C/C=C/C=C/C=N/NN=O [triacsin C] | – | – | – | 0.196 | 0.485 | – | −0.035 | – | – | – | – | –
